Assay [1] addresses asprosin-2×Strep-tag II overexpressed in 3T3-L1 cells (human) (UniProt P35555). Briefly: SDS-PAGE immunoblot. On the technique in general: A western blot detects proteins with antibodies after separation by electrophoresis.
Assay [2] has as its target endogenous human asprosin (human (endogenous in U2OS, WI-26, RPE)) (UniProt P35555). Briefly: SDS-PAGE immunoblot.
For assay [3] the target is unchanged. Briefly: native gel or EMSA.
Assay [4] deals with endogenous mouse asprosin (mouse (endogenous in C2C12)) (UniProt Q61554). Briefly: SDS-PAGE immunoblot.

Chains of the proteins cited; added tags and fusions are not shown. Residues count along the entry.
UniProt P35555, residues 2732-2871: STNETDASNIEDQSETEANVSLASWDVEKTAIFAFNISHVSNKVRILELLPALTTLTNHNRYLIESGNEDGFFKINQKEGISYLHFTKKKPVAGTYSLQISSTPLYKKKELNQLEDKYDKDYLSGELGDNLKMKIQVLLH
UniProt Q61554, residues 2734-2873: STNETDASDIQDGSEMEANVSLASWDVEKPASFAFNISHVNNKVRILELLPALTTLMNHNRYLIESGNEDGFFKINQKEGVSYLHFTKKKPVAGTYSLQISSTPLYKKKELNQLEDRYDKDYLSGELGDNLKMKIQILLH

No constants are given. Whether binding was seen depends on the method and setting. Some results given as binding are weak or reduced against the parent protein; the word gives no strength.

On to “asprosin-2×Strep-tag II overexpressed in 3T3-L1 cells (from UniProt P35555 2732-2871)”, for which the binding result in assay [1] was “binds”. For the substance “endogenous human asprosin (from UniProt P35555 2732-2871)”, the binding entry in assay [2] and in assay [3] was “binds” throughout. As to “endogenous mouse asprosin (from UniProt Q61554 2734-2873)”, in assay [4], the binding entry is “binds”.

Source of the values: publication doi:10.1101/2022.01.04.474899 (bioRxiv, 2022).
